# Literature values, collected in patent US11124839B2, “Methods of treating cancer patients with farnesyltransferase inhibitors” (Kura Oncology, Inc., priority 2016, dated 2021).
# For at least one compound, name, drawing or mass did not settle the structure.
# What was measured:
# AML [1] = conditions: phase III; cited from earlier work
# AML [2] = conditions: 2-gene ratio in bone marrow blasts as inclusion criterion; cited from earlier work
smiles,measurement,setting,value
"Cn1cncc1[C@@](N)(c1ccc(Cl)cc1)c1ccc2c(c1)c(-c1cccc(Cl)c1)cc(=O)n2C [Tipifarnib, (B)-6-[amino(4-chlorophenyl)(1-methyl-1H-imidazol-5-yl)methyl]-4-(3-chlorophenyl)-1-methyl-2(1H)-quinolinone]",Overall survival versus best supportive care (BSC),AML [1],failed to demonstrate improvement in overall survival
same,Clinical benefit,AML [2],failed to demonstrate significant clinical benefit
